Results are given in words; binding and its absence hold for the method and conditions named. Binding seen in cells or lysates may run through a third protein. Some results given as binding are weak or reduced against the parent protein; the word gives no strength. Sequences can lack the tags named with a protein.
Legend:
[1] = target: T1, Flag-tagged retinoic acid receptor β4 (RARβ4) (UniProt P10826); assay: co-IP; cotransfected cells lysed in RIPA buffer; 2 μg Flag antibody for 500 μg total whole-cell lysate for each IP; immunoblot; HEK293T, 48 hours after transfection for Figure 6E
T1 sequence: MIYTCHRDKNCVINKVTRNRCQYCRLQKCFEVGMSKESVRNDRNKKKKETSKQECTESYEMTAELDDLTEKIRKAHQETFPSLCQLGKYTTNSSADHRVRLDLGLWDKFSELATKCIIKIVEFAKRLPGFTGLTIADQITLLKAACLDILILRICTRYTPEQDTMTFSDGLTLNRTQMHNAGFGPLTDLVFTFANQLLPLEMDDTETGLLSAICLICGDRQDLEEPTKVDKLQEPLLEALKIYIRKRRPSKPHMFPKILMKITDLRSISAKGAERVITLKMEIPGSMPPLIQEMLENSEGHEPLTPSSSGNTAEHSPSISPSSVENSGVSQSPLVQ

The chains behind the UniProt entries cited, without tags or fusion partners.
UniProt Q04206: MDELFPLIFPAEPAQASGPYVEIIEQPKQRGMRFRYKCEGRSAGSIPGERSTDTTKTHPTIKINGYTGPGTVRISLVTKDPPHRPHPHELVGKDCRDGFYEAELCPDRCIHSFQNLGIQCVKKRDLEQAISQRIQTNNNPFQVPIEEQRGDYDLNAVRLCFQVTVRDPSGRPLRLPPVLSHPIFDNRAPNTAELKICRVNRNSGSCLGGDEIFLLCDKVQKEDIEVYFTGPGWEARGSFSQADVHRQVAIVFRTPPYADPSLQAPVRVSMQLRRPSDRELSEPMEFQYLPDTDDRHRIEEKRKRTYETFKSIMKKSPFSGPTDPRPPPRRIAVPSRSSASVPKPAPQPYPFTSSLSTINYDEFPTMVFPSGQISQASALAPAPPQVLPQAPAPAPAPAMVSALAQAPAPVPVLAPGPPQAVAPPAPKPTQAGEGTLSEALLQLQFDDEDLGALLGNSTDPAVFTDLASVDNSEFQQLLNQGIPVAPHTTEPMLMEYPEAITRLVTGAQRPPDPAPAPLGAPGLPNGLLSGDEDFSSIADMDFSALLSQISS

[2] = target: T2, Flag-tagged retinoic acid receptor β2 (RARβ2) (UniProt P10826); assay: as above
T2 sequence: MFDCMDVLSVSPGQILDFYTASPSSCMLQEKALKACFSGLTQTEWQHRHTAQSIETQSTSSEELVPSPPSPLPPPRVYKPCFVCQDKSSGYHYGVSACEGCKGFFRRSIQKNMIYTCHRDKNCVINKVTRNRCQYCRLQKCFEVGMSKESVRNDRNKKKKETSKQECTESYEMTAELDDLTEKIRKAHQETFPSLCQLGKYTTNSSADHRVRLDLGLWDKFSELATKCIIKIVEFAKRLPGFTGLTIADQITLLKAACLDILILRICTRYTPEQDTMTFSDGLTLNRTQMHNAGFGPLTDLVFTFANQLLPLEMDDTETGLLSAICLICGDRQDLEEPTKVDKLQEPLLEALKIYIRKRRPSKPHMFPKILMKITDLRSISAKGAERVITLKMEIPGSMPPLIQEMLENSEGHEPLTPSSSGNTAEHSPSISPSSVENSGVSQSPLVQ

- binding [1]: binds
- binding [2]: binds
Substance: myc-tagged RelA/p65 (from UniProt Q04206 1-551)

Source: paper PMC9870083
